Measurements published in the supplement of paper PMC12819154, “High-throughput peptide-centric local stability assay extends protein–ligand identification to membrane proteins, tissues and bacteria” (Nature Structural & Molecular Biology, 2025).
The other results are listed elsewhere or left out. Most entries show no effect beyond the scatter of the controls.

Chains of the proteins cited; added tags and fusions are not shown. Lines headed by an entry give the natural chain unless they say otherwise; changes in a name come on top.
UniProt Q9CX34: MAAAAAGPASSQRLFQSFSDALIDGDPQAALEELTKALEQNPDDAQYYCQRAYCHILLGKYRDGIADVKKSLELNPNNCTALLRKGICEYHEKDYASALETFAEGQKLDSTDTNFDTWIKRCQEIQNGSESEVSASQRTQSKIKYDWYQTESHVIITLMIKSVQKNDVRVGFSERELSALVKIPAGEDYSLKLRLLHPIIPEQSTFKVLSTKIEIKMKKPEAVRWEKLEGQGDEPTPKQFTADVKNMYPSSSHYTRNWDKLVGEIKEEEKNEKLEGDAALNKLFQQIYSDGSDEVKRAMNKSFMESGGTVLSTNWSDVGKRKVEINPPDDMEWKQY
UniProt Q9CR63: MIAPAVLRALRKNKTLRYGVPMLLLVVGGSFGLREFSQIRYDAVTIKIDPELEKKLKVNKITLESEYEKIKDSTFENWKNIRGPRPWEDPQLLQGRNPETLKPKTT
UniProt Q99JH7: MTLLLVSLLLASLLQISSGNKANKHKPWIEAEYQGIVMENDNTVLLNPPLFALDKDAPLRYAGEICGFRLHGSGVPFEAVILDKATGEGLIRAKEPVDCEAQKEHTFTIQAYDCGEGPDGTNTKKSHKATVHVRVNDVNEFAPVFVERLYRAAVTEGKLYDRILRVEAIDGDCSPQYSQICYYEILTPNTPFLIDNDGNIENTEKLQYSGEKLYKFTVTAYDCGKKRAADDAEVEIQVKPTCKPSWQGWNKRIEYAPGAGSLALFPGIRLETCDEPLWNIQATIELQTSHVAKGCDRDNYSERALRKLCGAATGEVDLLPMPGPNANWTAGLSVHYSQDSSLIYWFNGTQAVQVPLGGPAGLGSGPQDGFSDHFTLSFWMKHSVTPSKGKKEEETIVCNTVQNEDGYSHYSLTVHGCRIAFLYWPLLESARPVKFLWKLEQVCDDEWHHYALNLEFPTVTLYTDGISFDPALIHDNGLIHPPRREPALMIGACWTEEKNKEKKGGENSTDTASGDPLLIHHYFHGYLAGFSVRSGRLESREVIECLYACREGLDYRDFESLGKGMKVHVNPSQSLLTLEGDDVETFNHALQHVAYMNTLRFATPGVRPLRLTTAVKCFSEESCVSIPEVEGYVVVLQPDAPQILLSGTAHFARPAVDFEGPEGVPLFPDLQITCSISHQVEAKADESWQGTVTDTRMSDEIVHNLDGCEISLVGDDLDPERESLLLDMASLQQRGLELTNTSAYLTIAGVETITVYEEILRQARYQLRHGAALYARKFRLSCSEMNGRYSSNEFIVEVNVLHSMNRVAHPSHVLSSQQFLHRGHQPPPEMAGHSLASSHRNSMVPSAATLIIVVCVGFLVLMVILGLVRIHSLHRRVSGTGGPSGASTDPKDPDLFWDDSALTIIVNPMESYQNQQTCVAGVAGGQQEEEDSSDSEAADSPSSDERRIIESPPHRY
UniProt Q9CX00, whole entry: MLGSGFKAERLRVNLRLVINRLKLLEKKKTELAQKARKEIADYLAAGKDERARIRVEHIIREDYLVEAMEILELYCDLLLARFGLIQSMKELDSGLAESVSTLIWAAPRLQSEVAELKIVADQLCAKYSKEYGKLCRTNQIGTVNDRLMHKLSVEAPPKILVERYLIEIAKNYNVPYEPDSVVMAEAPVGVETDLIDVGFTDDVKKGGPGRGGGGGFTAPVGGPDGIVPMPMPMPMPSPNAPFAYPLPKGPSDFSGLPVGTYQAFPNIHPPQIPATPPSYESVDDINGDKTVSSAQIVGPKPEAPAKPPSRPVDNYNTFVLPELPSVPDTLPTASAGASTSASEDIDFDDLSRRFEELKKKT
UniProt Q99K90: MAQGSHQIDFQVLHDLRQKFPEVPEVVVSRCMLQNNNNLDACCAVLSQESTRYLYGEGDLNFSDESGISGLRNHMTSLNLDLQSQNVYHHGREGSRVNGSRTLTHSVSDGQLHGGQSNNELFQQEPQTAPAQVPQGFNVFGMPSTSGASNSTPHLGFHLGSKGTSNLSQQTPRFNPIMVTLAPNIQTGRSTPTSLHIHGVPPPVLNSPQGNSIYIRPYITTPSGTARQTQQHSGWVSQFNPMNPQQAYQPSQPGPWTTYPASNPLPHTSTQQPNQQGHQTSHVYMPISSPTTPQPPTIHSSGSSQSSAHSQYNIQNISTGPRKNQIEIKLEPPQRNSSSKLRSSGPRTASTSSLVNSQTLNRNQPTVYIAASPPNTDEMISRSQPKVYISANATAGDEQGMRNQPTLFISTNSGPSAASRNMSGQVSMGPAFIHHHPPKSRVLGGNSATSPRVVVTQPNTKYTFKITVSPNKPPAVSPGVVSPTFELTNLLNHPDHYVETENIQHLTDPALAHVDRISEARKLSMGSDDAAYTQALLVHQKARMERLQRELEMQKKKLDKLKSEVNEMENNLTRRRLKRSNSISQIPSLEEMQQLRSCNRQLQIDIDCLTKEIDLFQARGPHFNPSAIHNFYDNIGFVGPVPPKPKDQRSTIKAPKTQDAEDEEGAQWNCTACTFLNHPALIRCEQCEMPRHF
UniProt Q9CR50: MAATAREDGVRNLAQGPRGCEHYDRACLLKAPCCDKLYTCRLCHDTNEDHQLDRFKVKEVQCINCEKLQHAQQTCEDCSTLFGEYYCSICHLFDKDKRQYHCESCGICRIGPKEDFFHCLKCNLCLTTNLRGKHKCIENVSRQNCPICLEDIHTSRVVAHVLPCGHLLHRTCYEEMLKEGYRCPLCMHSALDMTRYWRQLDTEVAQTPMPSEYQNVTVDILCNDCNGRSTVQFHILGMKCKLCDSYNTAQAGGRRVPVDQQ
UniProt Q99KK1: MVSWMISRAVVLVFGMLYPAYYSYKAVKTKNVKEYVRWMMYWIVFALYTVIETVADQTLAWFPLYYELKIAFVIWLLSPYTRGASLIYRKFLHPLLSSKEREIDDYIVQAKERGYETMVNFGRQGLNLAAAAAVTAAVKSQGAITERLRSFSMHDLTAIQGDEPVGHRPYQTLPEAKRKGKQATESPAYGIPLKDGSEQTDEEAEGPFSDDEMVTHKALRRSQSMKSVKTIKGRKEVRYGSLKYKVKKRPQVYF
UniProt Q99L43: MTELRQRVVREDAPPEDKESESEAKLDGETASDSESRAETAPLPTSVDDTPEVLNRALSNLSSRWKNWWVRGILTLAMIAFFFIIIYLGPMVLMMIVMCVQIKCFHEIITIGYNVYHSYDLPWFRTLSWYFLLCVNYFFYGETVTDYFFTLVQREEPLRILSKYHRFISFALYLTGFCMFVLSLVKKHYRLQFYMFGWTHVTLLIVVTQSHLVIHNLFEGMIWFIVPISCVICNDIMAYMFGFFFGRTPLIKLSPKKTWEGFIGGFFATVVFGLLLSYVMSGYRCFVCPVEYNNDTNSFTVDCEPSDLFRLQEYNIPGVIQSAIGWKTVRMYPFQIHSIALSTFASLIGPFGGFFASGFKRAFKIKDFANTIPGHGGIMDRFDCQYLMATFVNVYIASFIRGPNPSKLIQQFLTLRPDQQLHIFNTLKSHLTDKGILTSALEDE
UniProt Q9CPR7: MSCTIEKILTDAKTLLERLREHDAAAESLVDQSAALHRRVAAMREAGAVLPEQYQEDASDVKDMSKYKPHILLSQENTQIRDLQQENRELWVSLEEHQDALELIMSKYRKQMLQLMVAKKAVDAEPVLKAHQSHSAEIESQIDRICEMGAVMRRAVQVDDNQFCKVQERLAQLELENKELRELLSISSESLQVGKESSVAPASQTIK
UniProt Q99JR5: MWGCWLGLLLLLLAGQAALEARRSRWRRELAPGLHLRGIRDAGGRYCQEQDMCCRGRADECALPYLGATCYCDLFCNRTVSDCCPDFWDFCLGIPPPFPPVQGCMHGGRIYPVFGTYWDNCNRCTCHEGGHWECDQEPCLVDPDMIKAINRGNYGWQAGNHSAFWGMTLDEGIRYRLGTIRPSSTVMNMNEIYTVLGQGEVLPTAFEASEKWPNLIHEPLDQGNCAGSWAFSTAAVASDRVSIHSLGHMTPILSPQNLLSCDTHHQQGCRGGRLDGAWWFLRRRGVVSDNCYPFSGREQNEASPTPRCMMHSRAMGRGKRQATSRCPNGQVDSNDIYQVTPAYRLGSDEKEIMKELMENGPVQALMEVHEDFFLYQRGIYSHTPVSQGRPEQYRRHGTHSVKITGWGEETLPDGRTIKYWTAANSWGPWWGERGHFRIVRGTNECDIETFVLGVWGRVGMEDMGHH
UniProt Q99PG2: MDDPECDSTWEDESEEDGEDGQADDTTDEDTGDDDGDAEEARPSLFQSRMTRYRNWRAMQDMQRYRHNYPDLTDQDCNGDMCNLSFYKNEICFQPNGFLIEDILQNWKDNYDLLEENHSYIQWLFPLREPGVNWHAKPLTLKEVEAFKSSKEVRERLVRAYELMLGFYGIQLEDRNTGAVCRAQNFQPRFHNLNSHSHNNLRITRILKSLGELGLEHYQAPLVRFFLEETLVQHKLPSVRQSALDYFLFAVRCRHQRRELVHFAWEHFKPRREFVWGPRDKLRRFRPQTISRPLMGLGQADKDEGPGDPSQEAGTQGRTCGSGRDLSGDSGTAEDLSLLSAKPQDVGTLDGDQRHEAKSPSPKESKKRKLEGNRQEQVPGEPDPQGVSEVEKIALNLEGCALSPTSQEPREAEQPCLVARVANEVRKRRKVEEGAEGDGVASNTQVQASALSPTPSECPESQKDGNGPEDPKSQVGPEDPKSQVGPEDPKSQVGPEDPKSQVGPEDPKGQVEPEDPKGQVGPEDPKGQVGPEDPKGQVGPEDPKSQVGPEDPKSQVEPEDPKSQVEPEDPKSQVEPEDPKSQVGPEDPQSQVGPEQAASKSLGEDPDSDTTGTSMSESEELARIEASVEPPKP
UniProt Q99N28: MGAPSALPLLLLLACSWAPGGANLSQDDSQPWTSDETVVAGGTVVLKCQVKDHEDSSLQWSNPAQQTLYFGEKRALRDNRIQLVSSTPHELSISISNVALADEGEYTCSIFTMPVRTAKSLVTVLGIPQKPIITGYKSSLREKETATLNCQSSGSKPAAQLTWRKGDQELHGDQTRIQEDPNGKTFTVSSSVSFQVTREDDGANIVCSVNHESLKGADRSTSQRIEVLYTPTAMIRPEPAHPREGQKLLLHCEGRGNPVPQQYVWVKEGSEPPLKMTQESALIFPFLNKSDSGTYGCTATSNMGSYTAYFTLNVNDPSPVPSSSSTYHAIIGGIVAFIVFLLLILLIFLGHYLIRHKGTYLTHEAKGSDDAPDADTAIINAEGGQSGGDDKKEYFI
UniProt Q9CPW2: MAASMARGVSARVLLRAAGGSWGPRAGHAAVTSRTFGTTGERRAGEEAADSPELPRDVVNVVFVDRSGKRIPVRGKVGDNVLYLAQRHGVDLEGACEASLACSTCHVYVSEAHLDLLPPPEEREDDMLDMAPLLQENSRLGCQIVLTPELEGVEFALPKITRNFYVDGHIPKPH
UniProt Q99PE8: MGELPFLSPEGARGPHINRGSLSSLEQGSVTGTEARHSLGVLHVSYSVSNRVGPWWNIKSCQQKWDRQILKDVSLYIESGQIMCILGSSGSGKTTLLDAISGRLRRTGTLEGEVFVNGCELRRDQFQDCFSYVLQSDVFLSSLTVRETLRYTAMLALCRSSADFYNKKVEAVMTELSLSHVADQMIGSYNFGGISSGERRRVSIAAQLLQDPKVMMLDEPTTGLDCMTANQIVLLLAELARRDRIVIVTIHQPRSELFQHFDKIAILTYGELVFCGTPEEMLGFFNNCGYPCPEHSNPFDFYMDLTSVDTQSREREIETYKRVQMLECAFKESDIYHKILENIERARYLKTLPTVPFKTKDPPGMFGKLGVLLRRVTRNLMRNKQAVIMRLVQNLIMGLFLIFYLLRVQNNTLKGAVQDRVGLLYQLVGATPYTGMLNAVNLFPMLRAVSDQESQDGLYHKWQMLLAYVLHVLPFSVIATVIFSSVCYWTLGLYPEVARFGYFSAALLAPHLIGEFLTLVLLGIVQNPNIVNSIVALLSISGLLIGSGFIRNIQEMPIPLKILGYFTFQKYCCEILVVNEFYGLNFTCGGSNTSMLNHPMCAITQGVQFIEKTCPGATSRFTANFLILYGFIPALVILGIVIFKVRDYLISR
UniProt Q9CR27: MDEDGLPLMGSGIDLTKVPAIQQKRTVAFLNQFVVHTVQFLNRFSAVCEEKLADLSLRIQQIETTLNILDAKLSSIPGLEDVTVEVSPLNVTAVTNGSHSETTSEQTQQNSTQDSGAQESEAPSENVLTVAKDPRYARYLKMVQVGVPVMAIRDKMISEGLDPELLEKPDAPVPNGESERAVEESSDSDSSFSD
UniProt Q99PM3, whole entry: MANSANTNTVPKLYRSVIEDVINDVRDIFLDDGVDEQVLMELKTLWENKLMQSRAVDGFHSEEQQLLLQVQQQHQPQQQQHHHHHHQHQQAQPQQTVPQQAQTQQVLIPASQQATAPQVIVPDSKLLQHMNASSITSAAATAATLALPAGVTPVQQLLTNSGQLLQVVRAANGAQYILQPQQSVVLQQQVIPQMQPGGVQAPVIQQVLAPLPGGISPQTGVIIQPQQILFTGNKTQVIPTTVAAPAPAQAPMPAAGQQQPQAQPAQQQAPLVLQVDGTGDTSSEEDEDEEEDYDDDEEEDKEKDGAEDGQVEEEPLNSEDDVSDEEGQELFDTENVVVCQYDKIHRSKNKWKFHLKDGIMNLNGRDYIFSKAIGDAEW

These targets were tested with CN[C@@H]1C[C@H]2O[C@@](C)([C@@H]1OC)n1c3ccccc3c3c4c(c5c6ccccc6n2c5c31)C(=O)NC4 [staurosporine] (assay: log2 fold change of pooled soluble protein (PISA), ligand vs vehicle (log2 ratio); higher = more thermally stabilized). Details: ligand concentration: 20 uM; assay format: PISA pool 52.9/55.5/58.6 C.

Target	log2 fold change of pooled soluble protein
UniProt Q99JT5	-0.125
UniProt Q99LN9	0.0477
UniProt Q9CX34	-0.294
UniProt Q99M04	0.0886
UniProt Q99K67	-0.0892
UniProt Q9CR63	0.102
UniProt Q9CQF4	0.401
UniProt Q99JH7	-0.0709
UniProt Q9CX00	-0.0547
UniProt Q99M51	-0.0515
UniProt Q99K90	0.186
UniProt Q9CR50	0.0495
UniProt Q9CQ73	0.0603
UniProt Q99KU6	-0.102
UniProt Q99MB7	-0.0142
UniProt Q99N69	-0.2
UniProt Q99KK1	0.0179
UniProt Q99L43	0.0939

Target	log2 fold change of pooled soluble protein
UniProt Q9CR39	-0.179
UniProt Q9CPR7	-0.0488
UniProt Q99JR5	0.0619
UniProt Q9CXE2	0.2
UniProt Q9CQE8	-0.0711
UniProt Q99PG2	0.124
UniProt Q9CQ10	0.00952
UniProt Q9CR51	0.226
UniProt Q99N28	-0.0216
UniProt Q9CPW2	0.206
UniProt Q9CW07	0.116
UniProt Q99PE8	0.252
UniProt Q9CR27	-0.166
UniProt Q9CQA3	-0.00441
UniProt Q99K99	-0.00368
UniProt Q99L47	-0.0385
UniProt Q99PM3	0.312
UniProt Q9CWX2	0.0669

Quoted at random: three records from the list.
Target	log2 fold change of pooled soluble protein
UniProt Q99KK1	0.0179
UniProt Q9CWX2	0.0669
UniProt Q9CR51	0.226
